Chains of the proteins cited; added tags and fusions are not shown.
UniProt Q0JBA9, entry or part of it: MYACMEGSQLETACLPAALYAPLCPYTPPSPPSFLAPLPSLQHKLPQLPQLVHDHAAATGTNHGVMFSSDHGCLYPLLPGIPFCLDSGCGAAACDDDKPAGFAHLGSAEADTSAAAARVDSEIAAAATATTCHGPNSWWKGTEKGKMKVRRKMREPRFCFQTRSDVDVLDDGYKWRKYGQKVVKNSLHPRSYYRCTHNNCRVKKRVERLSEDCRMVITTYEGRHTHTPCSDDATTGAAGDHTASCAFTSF

Some of the results follow.
Each sequence was assayed against OsWRKY34 (Oryza sativa, UniProt Q0JBA9 1-250) (assay: protein-binding microarray (RPBM); PBS, 2% BSA, 51.3 ng/ul salmon testes DNA, 50 uM zinc acetate, 200 nM TF, 25 C, 1 h; high values mean tight binding). Settings: protein: recombinant; tags: N-terminal polyhistidine and DsRed monomer fusion (pET32a); label: CyDye5-dUTP incorporated in the synthesized complementary strand; 3' TTTTT single-stranded linker to array surface; dsDNA, one strand shown.
How it was run: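 For the binding signal, per-feature fluorescence intensity was read in arbitrary units on an Axon 4000B scanner. Before scanning, a 2% BSA-blocked custom Agilent array made double-stranded with Cy5-dUTP was washed after 1 h at 25 °C with 200 nM protein and 50 µM zinc acetate. The proteins were Ni–NTA-purified transcription factors with N-terminal polyhistidine and DsRed fusions, expressed in E. coli BL21-CodonPlus.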
In the case of “TTGTTTTGATTGTCATCCACTACCAACAATCGATATACTCCGGAGTCACCTAGTGCAG”, the binding signal is reported as 9920 fluorescence intensity (a.u.).
“CTTCTCCGACTCCGGCCACCGACCACCGCCCCTGCGTTCCCGGAGTCACCTAGTGCAG” was tested, and the binding signal was 9920 fluorescence intensity (a.u.).
With “AGATCCCCACGCAGACGCACGCCTCGCTATCCCTCGCCGTCGGAGTCACCTAGTGCAG” the binding signal was 10600 fluorescence intensity (a.u.).
With “GGAGTATTATTGTGCATTTAGTTAGTTGGGATGGCATAAACGGAGTCACCTAGTGCAG” the binding signal was 8810 fluorescence intensity (a.u.).
In the case of “TTCAGCATAATTTCTCCTTCATTATTGGCCTTTTTAATTACGGAGTCACCTAGTGCAG”, the binding signal is reported as 9850 fluorescence intensity (a.u.).
With “TTAGCTGTGTGTGTTCTTACGCTTGGGTTGGCGATTGAATCGGAGTCACCTAGTGCAG” the binding signal was 9810 fluorescence intensity (a.u.).
For “CCCTATCCATTAATTACTCGCTTCGTGGTCGGAATCCATGCGGAGTCACCTAGTGCAG”, the binding signal was 8200 fluorescence intensity (a.u.).
In the case of “CCATCCAGCGTCTCTCATGGGCTTTCACAATTTCTGTGAGCGGAGTCACCTAGTGCAG”, the binding signal is reported as 8520 fluorescence intensity (a.u.).
For “GGCGAAGTGGTGGGTGCGTTGGGGCGAGGCGGAGCGGTGGCGGAGTCACCTAGTGCAG”, the binding signal was 8050 fluorescence intensity (a.u.).
For “CTCCGTGTTGTAGTGTTGTGTAGCAGTAGTCCACCGCTGACGGAGTCACCTAGTGCAG”, the binding signal was 8270 fluorescence intensity (a.u.).
“GCCTCTCGTGGGCCGTCGCCGCCCACCCGCCCGGACACGTCGGAGTCACCTAGTGCAG” was tested, and the binding signal was 8380 fluorescence intensity (a.u.).
In the case of “CGCGAGGGCGTGGTGGTGGTGGTGGTCGTCATCATCGACGCGGAGTCACCTAGTGCAG”, the binding signal is reported as 8440 fluorescence intensity (a.u.).
For “TGCAGATCCCTTAAACCGCCCCTCACCACACGCGCCGTCTCGGAGTCACCTAGTGCAG”, the binding signal was 9130 fluorescence intensity (a.u.).
For “CCTCTCTCTCTCTCTCTCTCTCTAGATATCTCTCTCTTTTCGGAGTCACCTAGTGCAG”, the binding signal was 8320 fluorescence intensity (a.u.).
In the case of “TATATACTCCCTCCATATTTTAATGTATGACGCCGTTGACCGGAGTCACCTAGTGCAG”, the binding signal is reported as 9880 fluorescence intensity (a.u.).
In the case of “CCCTACTCCGTCGTCGCTCGCCTGCTCCGCCGTTCTCCTCCGGAGTCACCTAGTGCAG”, the binding signal is reported as 8380 fluorescence intensity (a.u.).
“CCAATCGTCATCCATGCATGCTGCAACTGTAAGCTTTTCCCGGAGTCACCTAGTGCAG” was tested, and the binding signal was 9360 fluorescence intensity (a.u.).
“CTCGCCTCGCCGCAAATCTCACCACTCGCCACCGCCTCCCCGGAGTCACCTAGTGCAG” was tested, and the binding signal was 8960 fluorescence intensity (a.u.).
“AATATTTTTTTGAGGTTTTTTGTTGCGTTTAAAATTCAAACGGAGTCACCTAGTGCAG” was tested, and the binding signal was 8110 fluorescence intensity (a.u.).
For “TTTGGTGGTGTTGGGCACGAGCGCCCTCATTGTGTATAGCCGGAGTCACCTAGTGCAG”, the binding signal was 9560 fluorescence intensity (a.u.).
“CTCCCGCCCGCCTATATAAACTTGTTCGCGCTCGGCTCCTCGGAGTCACCTAGTGCAG” was tested, and the binding signal was 8960 fluorescence intensity (a.u.).
For “ATTCTGTTATGAACTATGTAAACCTTCTCATGTATATTCACGGAGTCACCTAGTGCAG”, the binding signal was 8840 fluorescence intensity (a.u.).
With “ACACTCCTTGATTCTTCTGTATTTCCACTTATTGTTCCAACGGAGTCACCTAGTGCAG” the binding signal was 16200 fluorescence intensity (a.u.).
“CAGACAGGGATGTTTCGGTTGAGACCTTCGTTTTCATCTCCGGAGTCACCTAGTGCAG” was tested, and the binding signal was 8330 fluorescence intensity (a.u.).
For “CAGGGGTGGGTTGCGCATCGCCGGAGGCGGCGGGGTTCCGCGGAGTCACCTAGTGCAG”, the binding signal was 16200 fluorescence intensity (a.u.).
“GTTTGGTTGGAGGTCAGGGTGGATGGGGCAGCCCAAAATACGGAGTCACCTAGTGCAG” was tested, and the binding signal was 9960 fluorescence intensity (a.u.).
With “CACAGCTTCTTAATTACTCCACCTTAATTAATCGATTAATCGGAGTCACCTAGTGCAG” the binding signal was 8680 fluorescence intensity (a.u.).
With “CCTCATCTCATCTCCCGAAATACTAATCCAGCTCGATCGTCGGAGTCACCTAGTGCAG” the binding signal was 9620 fluorescence intensity (a.u.).
For “TTCTCCTCTGGGCCGCCCTATCCCACTCTCGCCCAGCATCCGGAGTCACCTAGTGCAG”, the binding signal was 10100 fluorescence intensity (a.u.).
For “GATTAGCCATGATGTAGCGTGATTCTTTCCTTGCAGGCTTCGGAGTCACCTAGTGCAG”, the binding signal was 8950 fluorescence intensity (a.u.).
“ATCAGTAGTTCAGTACTACTTCTTCCGTTTCACAATGTAACGGAGTCACCTAGTGCAG” was tested, and the binding signal was 8130 fluorescence intensity (a.u.).
In the case of “ATTTACCGTGGCTAAGCAAGCCCTGATCACACGTTCCACACGGAGTCACCTAGTGCAG”, the binding signal is reported as 8060 fluorescence intensity (a.u.).
For “CGGTTTTGTCCTACGTGACAGTTGACTTGCTGAGTCAACACGGAGTCACCTAGTGCAG”, the binding signal was 9350 fluorescence intensity (a.u.).
For “TGCATGTGTTCTATTTACAGTTGATAAGTGTATTGTGTATCGGAGTCACCTAGTGCAG”, the binding signal was 9630 fluorescence intensity (a.u.).
In the case of “CCCTTTATTTGCTTATGATTTGTATTAGTTTGGTCAATATCGGAGTCACCTAGTGCAG”, the binding signal is reported as 11700 fluorescence intensity (a.u.).
With “CGCGCGCGTCGTCGTCTCCCTCACCACTCGCCCCGATCGACGGAGTCACCTAGTGCAG” the binding signal was 8550 fluorescence intensity (a.u.).
With “GCAATTTTTTTTCCACGTGATACCATTCTTGTGTTTTACACGGAGTCACCTAGTGCAG” the binding signal was 8700 fluorescence intensity (a.u.).
With “AATCTTAGTTTTGGGTTCATTTGCCAGCTTCTAATCTTCCCGGAGTCACCTAGTGCAG” the binding signal was 11600 fluorescence intensity (a.u.).
With “GACCTTATTTGCATTGATTGACCTTATTTGCATTGATTTTCGGAGTCACCTAGTGCAG” the binding signal was 19700 fluorescence intensity (a.u.).
“GAAAATATTGTTAAACTGACCTTTTTTGACAGTCATCTTCCGGAGTCACCTAGTGCAG” was tested, and the binding signal was 10100 fluorescence intensity (a.u.).
With “AGCCAGTTTTCTCCACCCTCGTTTTCCGCGCACATGTTTTCGGAGTCACCTAGTGCAG” the binding signal was 17600 fluorescence intensity (a.u.).
“ATTTGTGTGCTCAAGGTCTGTACTTACAGTGCTCTACTTTCGGAGTCACCTAGTGCAG” was tested, and the binding signal was 8180 fluorescence intensity (a.u.).

Reference: article PMC7819943, “Rice protein-binding microarrays: a tool to detect cis-acting elements near promoter regions in rice”
